# Measured values as given in PubChem BioAssay AID1671190 (National Center for Advancing Translational Sciences (NCATS), 2021).
# Chains of the proteins cited; added tags and fusions are not shown. Lines headed by an entry give the natural chain unless they say otherwise; changes in a name come on top.
# UniProt P18054: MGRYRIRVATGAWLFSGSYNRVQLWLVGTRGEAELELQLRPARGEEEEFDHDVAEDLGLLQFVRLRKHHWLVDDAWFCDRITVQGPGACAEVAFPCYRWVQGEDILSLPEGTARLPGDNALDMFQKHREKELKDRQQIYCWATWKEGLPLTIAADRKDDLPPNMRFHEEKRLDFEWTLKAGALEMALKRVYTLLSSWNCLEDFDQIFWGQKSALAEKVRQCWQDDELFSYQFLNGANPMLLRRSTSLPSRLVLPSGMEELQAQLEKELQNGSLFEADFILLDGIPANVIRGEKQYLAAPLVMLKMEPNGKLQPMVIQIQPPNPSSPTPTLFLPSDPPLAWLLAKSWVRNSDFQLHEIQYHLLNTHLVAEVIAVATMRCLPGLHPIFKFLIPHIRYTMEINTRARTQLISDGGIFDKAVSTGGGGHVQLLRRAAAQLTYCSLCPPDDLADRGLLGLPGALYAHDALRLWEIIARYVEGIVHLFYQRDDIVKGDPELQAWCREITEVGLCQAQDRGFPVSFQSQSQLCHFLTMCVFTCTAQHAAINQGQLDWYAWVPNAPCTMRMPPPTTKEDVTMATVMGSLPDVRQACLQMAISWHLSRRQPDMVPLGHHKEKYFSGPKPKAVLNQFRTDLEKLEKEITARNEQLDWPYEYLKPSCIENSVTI
# “And” between values parts separate entries of the source, which are not always exact repeats. Equal values may be shown once. The whole screen tested about 580,000 compounds, of which about 6,100 (1.1%) were called active. Inconclusive results, whose numbers are uncertain, are shown with a selection of clear calls. The call rests on the fitted dose curve; in most records, active means well fitted inhibition curve with a large enough effect; inconclusive means small, poorly fitted or top-dose-only effect, or another doubt; inactive means no such curve, though single readings can be large or run the other way. Where the call is inconclusive, the potency comes from a doubtful curve fit.
# Molecular target: Polyunsaturated fatty acid lipoxygenase ALOX12 (Homo sapiens) (UniProt P18054)
# Test: Primary qHTS assay for inhibitors of human arachidonate 12S-lipoxygenase (ALOX12): Round 2
# Conditions: purified 12hLO, xylenol orange hydroperoxide absorbance; activity change, negative = inhibition: at 108 µM (top of the series) unless noted
# Summary of the method: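 Hydroperoxide product was detected by ferrous iron/xylenol orange as the 573 to 405 nm absorbance ratio. Arachidonic acid at 40 uM (final) was turned over for 30 min at room temperature by 150 nM human 12hLO, pH 7.0 Hepes buffer, after 15 min compound preincubation.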
# On the % scale 0 is the no-effect control and ±100 the full control effect; potency means the concentration at half of the fitted maximal effect.
Structure (SMILES),"activity change, negative = inhibition",Potency
COc1cc(C(CCN2CCCCC2)c2c(OC)cc(OC)c3c(-c4ccccc4)cc(=O)oc23)cc(OC)c1OC (stereo unspecified),inactive: -1.6%,–
O=C(NCc1ccccc1)c1onc(CSc2ccc(F)cc2)c1C(=O)NCc1ccccc1,inactive: 11%,–
Cc1c(/C=N/Nc2ccc(C(=O)O)cc2)c2ccccc2n1C,–,"inconclusive: 35.5 µM [inhibitor, partial curve]"
COc1ccc(S(=O)(=O)N2CCN(Cc3cc(OC)c(OC)c(OC)c3)CC2)cc1,–,active: 0.708 µM
Cc1cc2cc(N)ccc2[nH]1,–,"inconclusive: 112 µM [inhibitor, single point]"
Cc1ccn2c(-c3n[nH]c(=S)n3C)c(C)nc2c1,–,active: 44.7 µM
Cn1cc(-c2cnc(Nc3ccncc3)c3c2CCO3)cn1,–,"inconclusive: 25.1 µM [inhibitor, full curve]"
CN(CCOC(=O)/C=C/c1ccccc1)C(C)(C)C,inactive: -5.22%,–
O=C(c1cc2c(s1)-c1ccccc1OC2)N1CCN(c2ccccc2)CC1,–,"inactive and inconclusive: 100 µM [inhibitor, single point]"
CC(C)c1cccc(C(C)C)c1NC(=O)CCl,–,"inconclusive: 100 µM [inhibitor, single point]"
Cc1ccc(NC(=O)CSc2n[nH]c(=O)c3cc(-c4ccco4)nn23)cc1C,–,"inconclusive: 50.1 µM [inhibitor, partial curve, poor fit]"
CCOc1ccc(N2C(=O)Nc3ccc(Br)cc3C2(O)C(=O)NC(C)C)cc1 (stereo unspecified),inactive: 81.6%,–
CNC(=O)[C@@H](c1ccccc1)N1CCC[C@H]1C(=O)NC1CCOCC1,inactive: 20.1% [at 176 µM],–
CCc1c(C)sc(NC(=O)C(c2ccccc2)c2ccccc2)c1C#N,–,"inconclusive: 44.7 µM [inhibitor, partial curve, poor fit]"
O=C1/C(=C/c2ccco2)Oc2c1ccc(O)c2CN1CCCCC1,–,"inconclusive: 126 µM [inhibitor, single point]"
O=C(Nc1ccc2c(c1)OCCO2)c1cc2c(s1)-c1ccc(Cl)cc1S(=O)(=O)C2,inactive: -24.3%,–
O=C(O)c1ccccc1-c1ccccc1,inactive: 7.06%,–
Cc1ccc(-c2nnn3c2nc(NCCc2ccc(Cl)cc2)c2ccccc23)cc1,–,"inconclusive: 141 µM [inhibitor, partial curve, poor fit]"
O=S(=O)(c1ccc(NC(=S)N/N=C/c2ccc(Oc3ccccc3)cc2)cc1)N1CCOCC1,–,"inconclusive: 56.2 µM [inhibitor, partial curve, poor fit]"
COc1cccc(C(=O)Nc2cccc(S(=O)(=O)NC3=NCCC3)c2)c1,–,"inconclusive: 15.8 µM [inhibitor, partial curve, poor fit]"
O=c1oc2ccc(Br)cc2cc1-c1ccccc1,–,"inconclusive: 4.47 µM [inhibitor, full curve, poor fit]"
C=C(C)CNC(=S)N/N=C(\C)c1cccc(NC(C)=O)c1,–,"inconclusive: 31.6 µM [inhibitor, single point]"
CC1CCCC(C)N1/N=C/c1ccc(Cl)cc1 (stereo unspecified),inactive: -6.8%,–
NC(=O)C1CCN(Cc2cc(=O)oc3cc(-c4ccccc4)c(O)cc23)CC1,–,"inconclusive: 89.1 µM [inhibitor, single point]"

# Record cards, as listed above:
# Cc1cc2cc(N)ccc2[nH]1 is listed with Potency: inconclusive: 112 µM [inhibitor, single point]
# COc1cc(C(CCN2CCCCC2)c2c(OC)cc(OC)c3c(-c4ccccc4)cc(=O)oc23)cc(OC)c1OC (stereo unspecified) is listed with activity change, negative = inhibition: inactive: -1.6%

# (continued)

Structure (SMILES),"activity change, negative = inhibition",Potency
Cc1cc(Br)c(S(=O)(=O)NCc2ccncc2)cc1C,inactive: 2.67%,–
Cc1ccc(NC(=O)Cn2nnc(C(=O)NCc3cccs3)c2N)c(C)c1,–,"inconclusive: 28.2 µM [inhibitor, partial curve]"
COc1cccc(CNCC2CCCO2)c1 (stereo unspecified),–,"inconclusive: 7.08 µM [inhibitor, full curve]"
O=C(NC(=O)c1cnccc1C(F)(F)F)Nc1ccccc1,–,"inconclusive: 100 µM [inhibitor, partial curve, poor fit]"
COc1ccccc1NS(=O)(=O)c1ccc2[nH]c(=S)oc2c1,–,"inconclusive: 70.8 µM [inhibitor, single point]"
CCCOc1ccc2oc(=O)c3c(c2c1)CCCN3C(=O)CN1CCc2ccccc2C1,inactive: 0.232%,–
CN(C)C(=O)C1CC1c1cccc(Br)c1 (stereo unspecified),inactive: 18.4%,–
Cc1ccc(C)c(OCC(=O)Nc2ccc3c(c2)OCO3)c1,–,"inconclusive: 35.5 µM [inhibitor, partial curve, poor fit]"
CC(=O)Nc1ccc(S(=O)(=O)NCC(=O)O)cc1,–,"inconclusive: 7.08 µM [inhibitor, full curve, poor fit]"
CCOC(=O)/C(C#N)=C/c1c(Oc2cccc(C)c2)nc2ccccn2c1=O,–,"inconclusive: 112 µM [inhibitor, single point]"
CCOC(=O)CN(C#N)c1nc(C)cc(C)n1,–,"inconclusive: 89.1 µM [inhibitor, partial curve, poor fit]"
CCCC(=O)Nc1nnc(Sc2ccc(N(C)C)cc2)s1,inactive: 413%,–
Cc1ccc(-c2nc(CCN3C(=O)c4ccccc4C3=O)cs2)cc1,inactive: -10.6%,–
CCc1ccc(NC(=O)c2cnc(SC)nc2-c2ccccc2)cc1,–,"inconclusive: 22.4 µM [inhibitor, partial curve, poor fit]"
COC(=O)NN=C1CCC(c2ccccc2)CC1 (stereo unspecified),inactive: 489%,–
C=CCNCCCOc1ccc(Cl)cc1C(C)(C)C,–,"inconclusive: 1.78 µM [inhibitor, full curve, poor fit]"
COc1cccc(NC(=O)[C@@H]2CCCN2C(=O)[C@@H]2Cc3ccccc3CN2C(=O)OC(C)(C)C)c1,inactive: 3.91%,–
O=C(c1cn2cc(-c3ccccc3Cl)n(CC3CC3)c(=O)c2n1)N1CCCCC1,–,"inconclusive: 100 µM [inhibitor, partial curve, poor fit]"
CCOc1ccc(CNCc2c(C(=O)O)n(Cc3ccc(C)cc3)c3cc(C)ccc23)cc1,–,"inconclusive: 56.2 µM [inhibitor, partial curve, poor fit]"
CN(C)S(=O)(=O)c1cc(NC(=O)COC(=O)/C=C/c2ccco2)ccc1Cl,–,"inconclusive: 39.8 µM [inhibitor, partial curve, poor fit]"
CCCCc1c(-c2ccccc2OC)ncn1Cc1ccccc1Cl,–,"inconclusive: 44.7 µM [inhibitor, partial curve, poor fit]"
CC1(C)Cc2c(sc3c2c(=N)n(Cc2ccco2)c(=O)n3Cc2ccc(Cl)cc2)CO1,inactive: 5.75%,–
Cc1cn2nc(-c3nc(C4CCCN(C(=O)c5cccs5)C4)no3)cc2c(=O)[nH]1 (stereo unspecified),inactive: 16.3%,–
Cc1cccc(C(=O)N2CCc3cc(CNS(=O)(=O)c4ccc(Cl)s4)ccc32)c1,–,"inconclusive: 112 µM [inhibitor, partial curve, poor fit]"

Structure (SMILES),"activity change, negative = inhibition",Potency
CN(CCc1ccccc1)C(=O)c1ccc(NC(=O)Cc2ccc(NC(=O)C3CCCN(C(=O)C4CCC4)C3)cc2)cc1 (stereo unspecified),inactive: 0%,–
CC(C)CSc1ncnc2c1oc1nc3c(cc12)COC(C)(C)C3,inactive: 3.77%,–
CC(=O)c1ccc(NC(=O)CSc2nc(N3CCOCC3)c3c(c2C#N)CC(C)(C)OC3)cc1,inactive: 23.5%,–
COc1ccc(S(=O)(=O)N2CCOC23CCN(S(=O)(=O)c2ccc(F)cc2)CC3)cc1,inactive: 11.7%,–
COc1ccc(-c2cc(-c3cccc(O)c3)cn3cncc23)cc1,–,active: 15.8 µM
CCOC(=O)c1sc(NC(=O)c2ccc(S(=O)(=O)N3CCOCC3)cc2)nc1-c1ccccc1,inactive: 1.09%,–
CCCCn1c(NCc2ccc(OC)cc2O)nc2ccccc21,–,"inactive and inconclusive: 44.7 µM [inhibitor, partial curve, poor fit]"
CC(CN1CCC(O)CC1)c1ccccc1 (stereo unspecified),–,"inconclusive: 0.447 µM [inhibitor, full curve, poor fit]"
O=C(Nc1ccccc1)c1ccc(S(=O)(=O)N2CCOCC2)cc1,inactive: 0%,–
COc1ccccc1N(C)S(=O)(=O)c1ccc(C(=O)OCn2nnc3ccccc3c2=O)cc1,inactive: -8.11%,–
COc1ccc(OC)c(C2CC(c3c(-c4ccccc4)c4cc(Cl)ccc4[nH]c3=O)=NN2S(C)(=O)=O)c1 (stereo unspecified),inactive: 0%,–
COc1ccccc1C(=O)Nc1ccnn1C1CCN(C/C=C/c2ccccc2)CC1,inactive: -2.71%,–
CC(=O)Cc1nsc(NC(=O)c2c(-c3ccccc3Cl)noc2C)n1,–,"inconclusive: 3.98 µM [inhibitor, full curve, poor fit]"
COc1ccc(CN2CCN(C(=O)c3cc4cc(C)ccc4nc3C)CC2)cc1,inactive: -15.2%,–
CC(C)N1C(=O)CC2(CC[N+](C)(CCOC(=O)C(c3ccccc3)c3ccccc3)CC2)C1=O (stereo unspecified),–,"inconclusive: 35.5 µM [inhibitor, partial curve, poor fit]"
O=C(OCc1cc(=O)n2ccsc2n1)c1ccccc1NCCO,inactive: -26.6%,–
O=C(Nc1ccc(S(=O)(=O)Nc2ncccn2)cc1)c1ccc2ncsc2c1,–,"inconclusive: 44.7 µM [inhibitor, partial curve, poor fit]"
O=C(NCc1cccc(C(F)(F)F)c1)c1cnc(-c2ccccc2)nc1-c1ccncc1,–,"inconclusive: 56.2 µM [inhibitor, partial curve, poor fit]"
CC(C)CNS(=O)(=O)c1ccc(CCC(=O)NCc2ccncc2)cc1,–,"inconclusive: 79.4 µM [inhibitor, partial curve, poor fit]"
O=C(NCc1cccs1)c1nc2c(nnn2Cc2ccc(F)cc2)c(=O)[nH]1,inactive: 7.03%,–
CCCc1nc2ccccc2n2c(-c3ccccc3)c3c(=O)n(C)c(=O)n(C)c3c12,–,"inconclusive: 56.2 µM [inhibitor, partial curve, poor fit]"
COc1ccc(Nc2cccccc2=O)cc1,–,"inconclusive: 141 µM [inhibitor, single point]"
CN(C)c1ccc(-c2ccnc3c2CC(C)(C(=O)NCc2ccco2)O3)cc1 (stereo unspecified),–,"inconclusive: 39.8 µM [inhibitor, partial curve]"

# 3 entries from above, arranged by molecular weight, largest number first:
Structure (SMILES),"activity change, negative = inhibition",Potency
COc1ccc(S(=O)(=O)N2CCOC23CCN(S(=O)(=O)c2ccc(F)cc2)CC3)cc1,inactive: 11.7%,–
CN(C)c1ccc(-c2ccnc3c2CC(C)(C(=O)NCc2ccco2)O3)cc1 (stereo unspecified),–,"inconclusive: 39.8 µM [inhibitor, partial curve]"
CC(C)CNS(=O)(=O)c1ccc(CCC(=O)NCc2ccncc2)cc1,–,"inconclusive: 79.4 µM [inhibitor, partial curve, poor fit]"
